Test results as given in patent publication US20220348675A1 (I MAB BIOPHARMA US, published 2022).
Where a chain is given by its changes, count along the chain named. Results are given in words; binding and its absence hold for the method and conditions named. Some entries that bind do so weakly or less than the wild type. Each block holds one binder with its values, some of them ahead of it.

Chains of the proteins cited; added tags and fusions are not shown. Lines headed by an entry give the natural chain unless they say otherwise; changes in a name come on top. Residues count along the entry.
UniProt Q07011: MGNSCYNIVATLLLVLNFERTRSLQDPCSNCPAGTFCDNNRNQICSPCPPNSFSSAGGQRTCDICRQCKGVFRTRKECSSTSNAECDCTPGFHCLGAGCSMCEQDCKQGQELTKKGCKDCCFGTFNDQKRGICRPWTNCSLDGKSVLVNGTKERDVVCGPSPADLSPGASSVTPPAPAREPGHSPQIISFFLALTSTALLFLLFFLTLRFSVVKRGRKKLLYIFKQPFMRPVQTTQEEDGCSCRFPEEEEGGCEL
4-1BB expressed on cells (HEK293-4-1BB, 4-1BB-Jurkat, GloResponse NFκB-luc2/4-1BB Jurkat): residues 24-255 of Q07011
4-1BB (form not stated): residues 24-186 of Q07011

Key:
[1] = biological target: 4-1BB expressed on cells (HEK293-4-1BB, 4-1BB-Jurkat, GloResponse NFκB-luc2/4-1BB Jurkat) (UniProt Q07011); test: flow cytometry on HEK293-4-1BB cells (FIG. 3)
[2] = biological target: 4-1BB expressed on cells (HEK293-4-1BB, 4-1BB-Jurkat, GloResponse NFκB-luc2/4-1BB Jurkat) (UniProt Q07011); test: Flow cytometry on HEK293-4-1BB cells, PE anti-human IgG, MFI
[3] = biological target: 4-1BB expressed on cells (HEK293-4-1BB, 4-1BB-Jurkat, GloResponse NFκB-luc2/4-1BB Jurkat) (UniProt Q07011); test: flow cytometry on 4-1BB-Jurkat cells
[4] = biological target: human 4-1BB-Fc protein (human) (UniProt Q07011); test: ELISA, coated human 4-1BB-Fc
4-1BB (form not stated) = 4-1BB (form not stated) (UniProt Q07011); test: BLI, Octet Red 96

binding [4]: binds
binding [3]: binds
B3: 41B01.03 anti-4-1BB antibody (antibody, V domains shown)
VH: EVQLLESGGGLVQPGGSLRLSCAASGFTFSSYDMSWVRQAPGKGLEWVSWISYSGGSIYYADSVKGRFTISRDNSKNTLYLQMNSLRAEDTAVYYCARDGQRQSMREFDYWGQGTLVTVSS
VL: QSVLTQPPSASGTPGQRVTISCSGSSSNIGNNYVTWYQQLPGTAPKLLIYADSHRPSGVPDRFSGSKSGTSASLAISGLRSEDEADYYCATWDYSLSGYVFGGGTKLTVL

binding [4]: binds
binding [3]: binds
B4: 41B01.04 anti-4-1BB antibody (antibody, V domains shown)
VH: B3 VH with G100A, Q103N, S104A
VL: B3 VL

binding (4-1BB (form not stated)): binds
binding [3]: binds
B5: 41B01 anti-4-1BB antibody (antibody, V domains shown)
VH: B3 VH with Q103N
VL: B3 VL with Q16R

Further lines, the binder ahead of its results:

B1: 1A10 anti-4-1BB monoclonal antibody (antibody, V domains shown)
VH: B3 VH with G100A, Q103N
VL: B3 VL
binding [1]: binds
binding [2]: binds

B2: 41B01.02 anti-4-1BB antibody (antibody, V domains shown)
VH: B3 VH with G100A
VL: B3 VL with Q16R
notes: Full human anti-4-1BB antibody
binding [3]: binds

B6: 41B01.01 anti-4-1BB antibody (antibody, V domains shown)
VH: B3 VH with G100A, Q103N
VL: B3 VL with Q16R
binding [3]: binds

B7: 41B02 anti-4-1BB antibody (antibody, V domains shown)
VH: EVQLLESGGGLVQPGGSLRLSCAASGFTFSGYDMSWVRQAPGKGLEWVSVIYPDDGNTYYADSVKGRFTISRDNSKNTLYLQMNSLRAEDAAVYYCAKHGGQKPTTKSSSAYGMDGWGQGTLVTVSS
VL: B3 VL with Q16R
binding (4-1BB (form not stated)): binds
binding [3]: binds
